Laboratory results reported in article PMC7864074, “Functions of Gle1 are governed by two distinct modes of self-association” (The Journal of Biological Chemistry, 2020).
No constants are given. Whether binding was seen depends on the method and setting. Each block holds one binder with its values, some of them ahead of it.

Assays:
[1] = target: Gle1^(152–360 L248D L251D L258D L262D L315D M318D L322D L325D) (human) (UniProt Q53GS7); assay: native gel or EMSA; 4–15% acrylamide gradient native PAGE, 150 V for 90 min, Coomassie staining; both purified
[2] = target: Gle1^(1–360 Δ45–54 8D) (human) (UniProt Q53GS7); assay: SEC; S200 size-exclusion chromatography; 20 mM HEPES, pH 7.5, 200 mM NaCl, 0.5 mM TCEP, 10% glycerol; MBP as a size reference; both purified

binding [1]: no binding
B1: Gle1^(152–360 L248D L251D L258D L262D L315D M318D L322D L325D) (domain or fragment, UniProt Q53GS7 152-360)
chain: EEQERKVQALSEMASEQLKRFDEWKELKQHKEFQDLREVMEKSSREALGHQEKLKAEHRHRAKILNLKLREAEQQRVKQAEQERLRKEEGQIRLRADYADQEEMLQDSQQDDASEQHKALLKVDLAAFQTRGNQLCSLISGIIRASSESSYPTAESQAEAERADREDRDLDMNDGQEITRACEDKRRQDEEEAQVKLQEAQMQQGPEAH

binding [2]: no binding
B2: Gle1^(1–360 Δ45–54 8D) (domain or fragment, UniProt Q53GS7)
chain: MPSEGRCWETLKALRSSDKGRLCYYRDWLLRREDVLEECMSLPKHVLPHMQENQPLSETSPSSTSASALDQPSFVPKSPDASSAFSPASPATPNGTKGKDESQHTESMVLQSSRGIKVEGCVRMYELVHRMKGTEGLRLWQEEQERKVQALSEMASEQLKRFDEWKELKQHKEFQDLREVMEKSSREALGHQEKLKAEHRHRAKILNLKLREAEQQRVKQAEQERLRKEEGQIRLRADYADQEEMLQDSQQDDASEQHKALLKVDLAAFQTRGNQLCSLISGIIRASSESSYPTAESQAEAERADREDRDLDMNDGQEITRACEDKRRQDEEEAQVKLQEAQMQQGPEAH
